# Assay results as given in PubChem BioAssay AID504834 (National Center for Advancing Translational Sciences (NCATS), 2011).
# The whole screen tested about 320,000 compounds, of which about 22,000 (6.9%) were called active. The shares of active, inactive and inconclusive entries below differ from those in the screen. Calls follow the shape of the dose curve; as a rule, active = well fitted inhibition curve with a large enough effect; inconclusive = small, poorly fitted or top-dose-only effect, or another doubt; inactive = no such curve, though single readings can be large or run the other way. Potencies of inconclusive entries are doubtful fits and often do not repeat.
# Test: Primary qHTS for delayed death inhibitors of the malarial parasite plastid, 96 hour incubation
# Conditions: P. falciparum luciferase reporter growth; series mostly up to 28.7 µM
# Outline: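 Two parasite generations (96 h, 37 C, 5% CO2) of compound exposure in infected erythrocytes (0.05% parasitemia, 2% hematocrit). Luciferase-reporter P. falciparum; decreased luminescence indicates inhibited growth, aimed at apicoplast-acting delayed death.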
# Potency is read from the fitted curve at half-maximal effect.
row,SMILES,Potency
1,Cc1cc(NC(=O)c2noc3c2CCCC3)no1,inactive
2,CCc1cc(CNC(=O)c2cc(COc3ccc(C)nc3)on2)on1,inactive
3,COc1ccc(C(=O)CSc2nnnn2C)c(OC)c1,"inconclusive: 13.1 µM [inhibitor, single point]"
4,Cc1ccc2[nH]c3nc(N/N=C/c4cccc(O)c4)nnc3c2c1,"inconclusive: 18.5 µM [inhibitor, single point]"
5,O=C(COc1ncnc2ccccc12)c1ccc(Cl)cc1,inactive
6,CCOC(=O)C1=C(N)OC2=C(C(=O)CCC2)C1c1ccco1 (stereo not given),"inconclusive: 0.465 µM [inhibitor, partial curve, poor fit]"
7,O=C(NCc1ccccn1)c1ccc(Cn2cc(Br)cn2)o1,inactive
8,O=C1c2ccccc2NC(c2cccnc2)N1c1ccccc1F (stereo not given),inactive
9,CN(Cc1ccccc1)c1ccc(C(=O)O)cc1[N+](=O)[O-],"inconclusive: 18.5 µM [inhibitor, single point]"
10,O=C(COC(=O)c1cccc(NS(=O)(=O)/C=C/c2ccccc2)c1)Nc1ccccc1OC(F)F,inactive
11,CC(C(=O)NC(C)(C)C)N1C(=O)c2cccc3cccc(c23)C1=O (stereo not given),inactive
12,CC(C)(C)c1ccc(OCC(=O)NCC(c2cccs2)N2CCOCC2)cc1 (stereo not given),"inconclusive: 11.7 µM [inhibitor, partial curve, poor fit]"
13,Cc1c(N=NC2=C(O)CC(C)(C)CC2=O)c(=O)n(-c2ccccc2)n1C,active: 2.08 µM
14,Cc1ncc(/C=C2\C(=O)Nc3ccccc32)[nH]1,"inconclusive: 14.7 µM [inhibitor, partial curve, poor fit]"
15,C/C(NC(=O)c1ccccc1)=C1/C(=O)CC2C1C2(C)C (stereo not given),inactive
16,CC(=O)Nc1ccc2c(c1)nc1n2CCSC1,inactive
17,Cc1ccc(C)c(NC(=O)NC2CCCCCCC2)c1,"inconclusive: 20.8 µM [inhibitor, partial curve, poor fit]"
18,CC1(c2ccc3c(c2)OCO3)NC(=O)N(CC(=O)Nc2ccccc2[N+](=O)[O-])C1=O (stereo not given),inactive
19,Cc1cc(C)nc(SCCC(=O)Nc2cccc3ccccc23)n1,"inconclusive: 0.0828 µM [inhibitor, full curve, poor fit]"
20,Cn1c(=O)oc2cc(S(=O)(=O)NCc3ccco3)ccc21,"inconclusive: 9.28 µM [inhibitor, single point]"
21,COc1ccc(CCNC(=O)CCn2c(=O)c3cccn3c3ccc(F)cc32)c(OC)c1OC,inactive
22,COc1ccc(CCn2c(C)cc(C(=O)CN3C(=O)C(=O)N(Cc4ccco4)C3=O)c2C)cc1,"inconclusive: 18.5 µM [inhibitor, single point]"
23,CC(C)(C)OC(=O)N1CCN(C(=O)c2cccnc2Cl)CC1,inactive
24,COc1ccccc1-c1nnc(SCC(=O)Nc2c(Cl)cccc2Cl)o1,"inconclusive: 2.94 µM [inhibitor, partial curve, poor fit]"
25,O=c1c2cnn(-c3ccc(F)cc3)c2ncn1Cc1ccccc1,active: 8.28 µM

# Some of the entries so far, with tabs.
row	SMILES	Potency
1	Cc1cc(NC(=O)c2noc3c2CCCC3)no1	inactive
5	O=C(COc1ncnc2ccccc12)c1ccc(Cl)cc1	inactive
22	COc1ccc(CCn2c(C)cc(C(=O)CN3C(=O)C(=O)N(Cc4ccco4)C3=O)c2C)cc1	inconclusive: 18.5 µM [inhibitor, single point]

# Additional results

row,SMILES,Potency
1,O=C(O)C1CC=CCC1C(=O)Nc1ccccc1C(=O)N1CCN(c2ccccc2)CC1 (stereo not given),inactive
2,COc1ccc(C(=O)C2CCCN(C(=O)c3csc(C(C)=O)c3)C2)c(C)c1 (stereo not given),inactive
3,COc1ccccc1N1CCN(C(=O)c2nn(-c3ccccc3OC)c(=O)c3ccccc23)CC1,"inconclusive: 10.4 µM [inhibitor, partial curve, poor fit]"
4,O=C(NNC(=S)NC(=O)c1cn(-c2ccccc2)nc1-c1ccccc1)c1ccncc1,"inconclusive: 3.7 µM [inhibitor, partial curve, poor fit]"
5,O=S1(=O)CCC(NC(=S)N2CCOCC2)C1 (stereo not given),inactive
6,O=C(CS(=O)c1ccc(F)cc1)N1CCOCC1 (stereo not given),inactive
7,Cc1ccc(-c2nnc(SCC(N)=O)n2C)cc1,"inconclusive: 6.57 µM [inhibitor, partial curve, poor fit]"
8,Cc1cccc(CC2S/C(=N/N=C/c3ccco3)NC2=O)c1 (stereo not given),"inconclusive: 13.1 µM [inhibitor, single point]"
9,CC(=O)Nc1c2c(nn1-c1ccc(C)cc1C)CSC2,active: 10.4 µM
10,CCC(=O)Oc1ccc2c(C)cc(=O)oc2c1C(=O)CC,"inconclusive: 4.65 µM [inhibitor, partial curve]"
11,Cc1cc2c(cc1S(=O)(=O)NCc1ccc(N(C)C)cc1)OCC(=O)N2,"inconclusive: 11.7 µM [inhibitor, single point]"
12,Cc1nnc(N2C(=O)c3cccc4cccc(c34)C2=O)s1,inactive
13,CNc1nc(N)c(C(=O)Nc2cc(C)on2)s1,inactive
14,CC(C)C(NC(=O)c1ccccc1F)C(=O)NCc1ccc(S(=O)(=O)N2CCOCC2)cc1 (stereo not given),"inconclusive: 10.4 µM [inhibitor, single point]"
15,O=C(c1ccc(-c2ccccc2)cc1)N1CCN(c2ccccn2)CC1,inactive
16,COc1ccc(CC(=S)N2CCOCC2)cc1OC,"inconclusive: 0.0329 µM [inhibitor, full curve, poor fit]"
17,CC(C)(C)OC(=O)N[C@@H](Cc1ccccc1)C(=O)N[C@@H](CO)[C@H](O)[C@@H]1C[C@@H]1C(=O)NC1CC1,"inconclusive: 0.415 µM [inhibitor, partial curve, poor fit]"
18,CC(=O)Nc1nc(C)c(-c2nc3ccc([N+](=O)[O-])cc3[nH]2)s1,inactive
19,CC1Cc2nc(SCC(=O)N3CCN(c4ccccc4)CC3)n(C)c(=O)c2S1 (stereo not given),"inconclusive: 7.38 µM [inhibitor, partial curve, poor fit]"
20,COc1ccc(N(CC(=O)NC(C)c2ccccc2)S(=O)(=O)c2c(C)noc2C)cc1 (stereo not given),"inconclusive: 13.1 µM [inhibitor, single point]"
21,CC(CN1CCCCC1)OC(=O)c1ccc2c(c1)OCCO2 (stereo not given),inactive
22,Cc1ccc2oc(-c3ccc(NC(=O)CC(C)C)cc3)nc2c1,inactive
23,Cc1ccc(NC(=O)CN2CCN(c3ccccn3)CC2)cc1S(=O)(=O)N(C)C,"inconclusive: 0.329 µM [inhibitor, full curve, poor fit]"
24,COc1ccc(/C=C2\NC(=S)N(CC3CCCO3)C2=O)c(OC)c1C (stereo not given),inactive
25,N#C/C(=C\c1ccc(-c2cccc([N+](=O)[O-])c2)o1)C(=O)NCCN1CCOCC1,active: 10.4 µM

row,SMILES,Potency
1,Cc1ccc(OCC(=O)Nc2ccc3c(c2)nc(CCN2CCOCC2)n3C)cc1,"inconclusive: 14.7 µM [inhibitor, partial curve, poor fit]"
2,Cc1ccc(C(=O)Nc2c3c(nn2C(C)(C)C)CS(=O)(=O)C3)cc1C,inactive
3,COc1ccc(NC(=O)CSC2=NC(=O)CC(C)=N2)cc1,active: 11.7 µM
4,Cn1c(=O)c2c(SCC(=O)NCc3ccco3)nc(-c3ccccc3Cl)nc2n(C)c1=O,"inconclusive: 9.28 µM [inhibitor, partial curve, poor fit]"
5,COc1ccc(C(=O)NCC(c2ccco2)N2CCc3ccccc32)cc1 (stereo not given),"inconclusive: 8.28 µM [inhibitor, single point]"
6,CCC(/C=N/NC(=O)C(N)=O)CC,inactive
7,O=C(CCCCCn1c(SCC(=O)c2ccccc2)nc2ccccc2c1=O)NCc1ccco1,inactive
8,Cc1ccc(NC(=S)N(CCCN2CCOCC2)Cc2cccs2)c(C)c1,active: 9.28 µM
9,CN(C)C(C(=O)NC1CCCCC1)c1ccc(Cl)cc1 (stereo not given),"inconclusive: 18.5 µM [inhibitor, single point]"
10,O=C(Cn1nc(Br)nc1Br)c1ccccc1,"inconclusive: 11.7 µM [inhibitor, single point]"
11,Cc1nc(Nc2ccccc2)sc1C(=O)c1ccccc1,"inconclusive: 10.4 µM [inhibitor, single point]"
12,Nc1sc(-c2ccccc2)c(Cc2ccccc2)c1C(=O)O,inactive
13,CCOC(=O)c1ccccc1Nc1cn(C(C)=O)c2ccccc12,"inconclusive: 18.5 µM [inhibitor, single point]"
14,Cc1cccc(CC2CC(=O)N(c3ccccc3)C2=O)c1 (stereo not given),inactive
15,O=C(NC(O)C(=O)c1ccccc1)c1cccs1 (stereo not given),inactive
16,CCN(CC)CCNC(=O)c1ccc(NC(=O)c2c(C)nn(-c3ccc(F)cc3)c2Cl)cc1,inactive
17,CCCCCCc1ccc(N2C[C@H](CCCCC)[C@@H](CC(=O)NCc3ccc(OC)cc3)C2=O)cc1,"inconclusive: 13.1 µM [inhibitor, partial curve, poor fit]"
18,Cc1cccnc1NC(=O)c1cc2c(=O)oc3ccccc3c2s1,"inconclusive: 2.62 µM [inhibitor, partial curve, poor fit]"
19,O=C(NCCC1CCCCN1S(=O)(=O)c1ccccc1)C(=O)NC1CCCC1 (stereo not given),"inconclusive: 11.7 µM [inhibitor, single point]"
20,COc1cccc(-c2nn(C)c3sc(C(=O)NCc4ccc5c(c4)OCO5)cc23)c1,inactive
21,O=C(c1cc(COc2cccc(C(F)(F)F)c2)on1)N1CCC(c2ccncc2)CC1,"inconclusive: 8.28 µM [inhibitor, partial curve]"
22,COC(=O)c1cc(NC(=O)c2cc(-c3ccc(Cl)cc3)oc2C(F)(F)F)ccc1N1CCOCC1,"inconclusive: 13.1 µM [inhibitor, single point]"
23,CCCC(=O)c1c(C)c2ccccc2n1C,active: 3.29 µM
24,O=c1c2ccccc2n(Cc2ccc(F)cc2)c(=O)n1C1CCCC1,active: 13.1 µM
25,COC(=O)[C@@]12CCCCN1[C@H](c1ccc(SC3CCCCC3)cc1)[C@H]1C(=O)N(C)C(=O)[C@H]12,"inconclusive: 18.5 µM [inhibitor, single point]"
